Binding data for four molecules are collected here from article PMC12179556.

Protein sequences, listed by entry. Tags and fused reporters are not part of them.
UniProt Q99JI1: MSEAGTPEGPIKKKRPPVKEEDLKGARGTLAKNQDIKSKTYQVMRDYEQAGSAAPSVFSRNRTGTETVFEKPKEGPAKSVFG

No constants are given. Whether binding was seen depends on the method and setting. For some of these results: Binding seen in cells or lysates may run through a third protein. Some entries that bind do so weakly or less than the wild type. For some of these results: Where a sequence is shown, tags or fusion partners need not be part of it.

Assay [1] has as its target T1, SMPX-3×FLAG (mouse small muscle protein X-linked) (mouse) (UniProt Q9DC77).
T1 sequence: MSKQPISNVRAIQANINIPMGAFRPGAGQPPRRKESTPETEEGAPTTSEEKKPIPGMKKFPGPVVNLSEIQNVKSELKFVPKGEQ
Put plainly: co-IP; C2C12 cells 48 h after transfection with the 3×FLAG construct; lysate rotated with anti-FLAG magnetic beads overnight at 4°C, washed three to five times with lysis buffer; Western blot. On the technique in general: In western blotting, separated proteins are transferred to a membrane and probed.

For assay [2], the target named is T2, SMPX-His (UniProt Q9DC77).
T2 sequence: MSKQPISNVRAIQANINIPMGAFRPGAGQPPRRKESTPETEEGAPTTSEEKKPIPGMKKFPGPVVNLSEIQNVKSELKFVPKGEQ
Put plainly: pull-down; His pull-down: enrichment of MUSTN1 protein on binding beads holding SMPX-His, as for the GST pull-down; a heat shock protein as negative control; immunoblot with anti-GST; both purified.

The target in assay [3] is MUSTN1-3×FLAG (mouse musculoskeletal embryonic nuclear protein 1) (mouse) (UniProt Q99JI1). The assay is described as follows: co-IP; C2C12 cells 48 h after transfection with the 3×FLAG construct; lysate rotated with anti-FLAG magnetic beads overnight at 4°C, washed three to five times with lysis buffer; Western blot.
Assay [4] has as its target GST-MUSTN1 (not stated (pig or mouse cDNA cloned)) (UniProt Q99JI1). Put plainly: pull-down; GST pull-down: 20 μL beads bound to GST-MUSTN1 incubated with SMPX-His in binding buffer (50 mM Tris-HCl, 100 mM NaCl, 10% glycerol, 0.1% Tween-20, 1 mM DTT) at 4°C for 4 h; five washes; immunoblot with anti-His; both purified.

For the molecule “Musculoskeletal embryonic nuclear protein 1 (MUSTN1), endogenous in C2C12 (from UniProt Q99JI1 1-82)”, in assay [1], the binding entry is “binds”.

For the molecule GST-MUSTN1 (from UniProt Q99JI1 1-82), in assay [2], the binding entry is reported as “binds”.

B1: Small muscle protein X-linked (SMPX), endogenous in C2C12 (protein, UniProt Q9DC77 1-85)
chain: MSKQPISNVRAIQANINIPMGAFRPGAGQPPRRKESTPETEEGAPTTSEEKKPIPGMKKFPGPVVNLSEIQNVKSELKFVPKGEQ
In the case of B1, in assay [3], the binding result is given as “binds”.

B2: SMPX-His (protein, UniProt Q9DC77 1-85)
chain: MSKQPISNVRAIQANINIPMGAFRPGAGQPPRRKESTPETEEGAPTTSEEKKPIPGMKKFPGPVVNLSEIQNVKSELKFVPKGEQ
In the case of B2, in assay [4], the binding result is given as “binds”.
